# Where a name gives a salt, the structure may show the parent alone. Some of the results follow. Repeats are few or missing, and single values can be far off.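 Primary human fetal astrocytes engulfed labelled rat cortical synaptosomes, measured as a red/green ratio corrected for calcein live-cell signal and scaled to the plate median. Toxicity meant calcein falling over 30%; decreased phagocytosis meant below 70% of median above 5 µM.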
# How the values were obtained:
# Conditions in all cases: 24 h
# [1] = tested on: Human fetal astrocytes; experiment: loss of total cells relative to no-compound high-control median (toxicity); higher = more toxic (fewer cells)
# [2] = tested on: Human fetal astrocytes; experiment: as above; remark: listed apart in the source
# [3] = tested on: Human fetal astrocytes; experiment: synaptosome phagocytosis (pHrodo/calcein intensity ratio) relative to plate median of data wells; higher = more phagocytosis
compound,measurement,setting,value
COc1cccc2c1C(=O)c1c(O)c3c(c(O)c1C2=O)C[C@@](O)(C(C)=O)C[C@@H]3O[C@H]1C[C@H](N)[C@H](O)[C@H](C)O1,loss of total cells,[1]; 1.39 µM,11.6%
same,loss of total cells,[1]; 2.78 µM,15.3%
same,loss of total cells,[1]; 5.56 µM,18.8%
same,loss of total cells,[1]; 11.11 µM,28.5%
same,loss of total cells,[1]; 22.22 µM,33.7%
CCC(=O)c1ccc2c(c1)N(CCCN(C)C)c1ccccc1S2 [Propionylpromazine hydrochloride],loss of total cells,[2]; 1.39 µM,-7.1%
same,loss of total cells,[2]; 2.78 µM,-32.6%
same,loss of total cells,[2]; 5.56 µM,-3.4%
same,loss of total cells,[2]; 11.11 µM,-2.7%
same,loss of total cells,[2]; 22.22 µM,6.6%
same,synaptosome phagocytosis,[3]; 1.39 µM,99.9%
same,synaptosome phagocytosis,[3]; 2.78 µM,70.2%
same,synaptosome phagocytosis,[3]; 5.56 µM,116%
same,synaptosome phagocytosis,[3]; 11.11 µM,74%
same,synaptosome phagocytosis,[3]; 22.22 µM,80.4%
COc1ccc2c(c1)CCC1C2CCC2(C)C(NCCCCCCN3C(=O)C=CC3=O)CCC12 (stereo unspecified),loss of total cells,[2]; 1.39 µM,-15.2%
same,loss of total cells,[2]; 2.78 µM,-24.9%
same,loss of total cells,[2]; 5.56 µM,1.1%
same,loss of total cells,[2]; 11.11 µM,-12.6%
same,loss of total cells,[2]; 22.22 µM,-10.7%
same,synaptosome phagocytosis,[3]; 1.39 µM,107%
same,synaptosome phagocytosis,[3]; 2.78 µM,126%
same,synaptosome phagocytosis,[3]; 5.56 µM,103%
same,synaptosome phagocytosis,[3]; 11.11 µM,96.5%
same,synaptosome phagocytosis,[3]; 22.22 µM,116%
"Nc1ncnc2c1ncn2[C@@H]1O[C@H](COP(=O)(O)OP(=O)(O)OP(=O)(O)OP(=O)(O)OC[C@@H]2O[C@H](n3cnc4c(N)ncnc43)C(O)[C@@H]2O)[C@H](O)C1O (stereo partly specified) [P1,P4-Di(adenosine-5')tetraphosphate triammonium]",loss of total cells,[2]; 22.22 µM,13.6%
same,synaptosome phagocytosis,[3]; 22.22 µM,92.1%
O=C(c1ccc2c(c1)OCCO2)N1CCCCC1,loss of total cells,[2]; 22.22 µM,-18.4%
same,synaptosome phagocytosis,[3]; 22.22 µM,104%
Nc1nc2ccc(Cl)cc2c2nc(-c3ccco3)nn12,loss of total cells,[2]; 1.39 µM,1.3%
same,loss of total cells,[2]; 2.78 µM,11.1%
same,loss of total cells,[2]; 5.56 µM,10.7%
same,loss of total cells,[2]; 11.11 µM,-4%
same,synaptosome phagocytosis,[3]; 1.39 µM,114%
same,synaptosome phagocytosis,[3]; 2.78 µM,97.8%
same,synaptosome phagocytosis,[3]; 5.56 µM,107%
same,synaptosome phagocytosis,[3]; 11.11 µM,74.8%
Cc1cc(C)c(NC(=O)C[C@H](CC(=O)O)c2cccc3ccccc23)c(C(=O)N2CCC3(CCCC3)CC2)c1,loss of total cells,[2]; 1.39 µM,-8.1%
same,loss of total cells,[2]; 2.78 µM,-4.1%
same,loss of total cells,[2]; 5.56 µM,19.2%
same,loss of total cells,[2]; 11.11 µM,2.9%
same,loss of total cells,[2]; 22.22 µM,23.4%
same,synaptosome phagocytosis,[3]; 1.39 µM,106%
same,synaptosome phagocytosis,[3]; 2.78 µM,116%
same,synaptosome phagocytosis,[3]; 5.56 µM,88.6%
same,synaptosome phagocytosis,[3]; 11.11 µM,95.9%
same,synaptosome phagocytosis,[3]; 22.22 µM,86.8%
"COC1=C(OC)C(=O)c2ccccc2C1=O [2,3-Dimethoxy-1,4-naphthoquinone]",loss of total cells,[2]; 22.22 µM,-6.4%
same,synaptosome phagocytosis,[3]; 22.22 µM,100%
CCCOC(=O)c1c(-c2ccccc2)nc(CC)c(C(=O)SCC)c1CCC,loss of total cells,[2]; 1.39 µM,-14.7%
same,loss of total cells,[2]; 2.78 µM,5.9%
same,loss of total cells,[2]; 5.56 µM,8%
same,loss of total cells,[2]; 11.11 µM,36.2%
same,loss of total cells,[2]; 22.22 µM,43%
same,synaptosome phagocytosis,[3]; 1.39 µM,99.7%
same,synaptosome phagocytosis,[3]; 2.78 µM,51.6%
same,synaptosome phagocytosis,[3]; 5.56 µM,126%
same,synaptosome phagocytosis,[3]; 11.11 µM,63.7%
same,synaptosome phagocytosis,[3]; 22.22 µM,54.5%
C=CCN1CCc2c(cc(O)c(O)c2Cl)C(c2ccccc2)C1 (racemic) [(±)-Chloro-APB hydrobromide],loss of total cells,[2]; 22.22 µM,15.2%
same,synaptosome phagocytosis,[3]; 22.22 µM,67.8%
Oc1ccc2c(c1)OC[C@]1(O)Cc3cc(O)c(O)cc3[C@H]21,loss of total cells,[1]; 1.39 µM,6.9%
same,loss of total cells,[1]; 2.78 µM,7.3%
same,loss of total cells,[1]; 5.56 µM,50.4%
same,loss of total cells,[1]; 11.11 µM,51.6%
same,loss of total cells,[1]; 22.22 µM,18.1%

# 3 records picked at random from the list so far, as already listed:
compound,measurement,setting,value
CCCOC(=O)c1c(-c2ccccc2)nc(CC)c(C(=O)SCC)c1CCC,loss of total cells,[2]; 1.39 µM,-14.7%
"Nc1ncnc2c1ncn2[C@@H]1O[C@H](COP(=O)(O)OP(=O)(O)OP(=O)(O)OP(=O)(O)OC[C@@H]2O[C@H](n3cnc4c(N)ncnc43)C(O)[C@@H]2O)[C@H](O)C1O (stereo partly specified) [P1,P4-Di(adenosine-5')tetraphosphate triammonium]",synaptosome phagocytosis,[3]; 22.22 µM,92.1%
Cc1cc(C)c(NC(=O)C[C@H](CC(=O)O)c2cccc3ccccc23)c(C(=O)N2CCC3(CCCC3)CC2)c1,loss of total cells,[2]; 22.22 µM,23.4%

# Source: the supplement of paper PMC10689618
